These are yes or no findings as the source states them, for the method shown. Binding seen in cells or lysates may run through a third protein. Some binding calls cover weakened binding; strength is not graded here. For some assays here: Sequences can lack the tags named with a protein.
T1: Flag-tagged A20 (wild type) (UniProt P21580)
T1 sequence: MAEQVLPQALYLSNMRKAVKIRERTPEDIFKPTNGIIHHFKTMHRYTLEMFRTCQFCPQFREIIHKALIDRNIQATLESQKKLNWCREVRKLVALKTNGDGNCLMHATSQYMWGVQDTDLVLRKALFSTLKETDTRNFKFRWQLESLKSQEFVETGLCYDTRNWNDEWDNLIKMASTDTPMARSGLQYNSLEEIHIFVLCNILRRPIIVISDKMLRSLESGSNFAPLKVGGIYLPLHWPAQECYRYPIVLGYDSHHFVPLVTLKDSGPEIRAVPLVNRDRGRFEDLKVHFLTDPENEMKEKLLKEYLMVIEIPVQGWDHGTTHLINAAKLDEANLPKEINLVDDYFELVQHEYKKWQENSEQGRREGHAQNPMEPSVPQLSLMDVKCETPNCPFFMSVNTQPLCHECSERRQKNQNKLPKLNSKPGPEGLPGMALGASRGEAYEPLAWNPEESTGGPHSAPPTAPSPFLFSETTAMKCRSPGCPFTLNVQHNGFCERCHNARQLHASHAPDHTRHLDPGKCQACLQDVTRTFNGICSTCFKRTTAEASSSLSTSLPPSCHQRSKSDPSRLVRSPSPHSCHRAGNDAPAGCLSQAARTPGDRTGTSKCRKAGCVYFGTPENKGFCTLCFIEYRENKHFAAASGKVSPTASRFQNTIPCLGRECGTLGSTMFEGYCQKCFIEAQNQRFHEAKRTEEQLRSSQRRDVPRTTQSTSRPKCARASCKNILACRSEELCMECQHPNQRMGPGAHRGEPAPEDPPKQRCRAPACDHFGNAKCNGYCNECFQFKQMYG

Sequences of proteins named here, by UniProt entry; tags and fusion partners are left off.
UniProt P10415: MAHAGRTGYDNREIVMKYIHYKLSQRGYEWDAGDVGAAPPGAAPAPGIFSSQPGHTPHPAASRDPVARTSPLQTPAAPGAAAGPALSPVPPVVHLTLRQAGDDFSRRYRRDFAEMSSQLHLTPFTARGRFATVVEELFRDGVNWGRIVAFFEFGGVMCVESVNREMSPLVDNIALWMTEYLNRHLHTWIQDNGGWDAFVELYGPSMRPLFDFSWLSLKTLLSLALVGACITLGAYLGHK

T2: A20 (tumor necrosis factor alpha-induced protein 3), endogenous (human (endogenous in HCT116 and THC8307)) (UniProt P21580)
T2 sequence: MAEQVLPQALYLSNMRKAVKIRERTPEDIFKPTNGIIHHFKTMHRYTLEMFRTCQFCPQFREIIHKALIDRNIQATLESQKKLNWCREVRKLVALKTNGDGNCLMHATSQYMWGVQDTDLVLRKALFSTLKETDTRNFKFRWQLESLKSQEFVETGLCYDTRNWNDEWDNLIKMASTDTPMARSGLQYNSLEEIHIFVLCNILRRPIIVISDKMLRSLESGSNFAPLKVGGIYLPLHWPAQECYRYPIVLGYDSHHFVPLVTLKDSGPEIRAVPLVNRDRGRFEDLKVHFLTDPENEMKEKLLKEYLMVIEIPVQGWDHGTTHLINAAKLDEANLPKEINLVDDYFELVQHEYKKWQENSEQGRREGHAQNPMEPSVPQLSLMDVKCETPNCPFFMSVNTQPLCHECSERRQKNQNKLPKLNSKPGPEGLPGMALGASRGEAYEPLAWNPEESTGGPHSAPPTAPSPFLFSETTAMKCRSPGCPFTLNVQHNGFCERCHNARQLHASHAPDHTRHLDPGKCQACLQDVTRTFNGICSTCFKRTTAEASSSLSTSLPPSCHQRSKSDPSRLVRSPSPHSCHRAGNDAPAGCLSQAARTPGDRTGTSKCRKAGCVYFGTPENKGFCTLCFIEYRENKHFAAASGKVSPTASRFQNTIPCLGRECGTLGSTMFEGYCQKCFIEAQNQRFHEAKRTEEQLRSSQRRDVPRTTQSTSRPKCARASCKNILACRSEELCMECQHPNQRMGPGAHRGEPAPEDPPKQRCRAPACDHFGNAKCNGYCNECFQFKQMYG


How the values were obtained:
[1] = biological target: T1, Flag-tagged A20 (wild type); experiment: co-IP; HEK293T cells with Flag-vector or Flag-A20; immunoprecipitation followed by western blot for BCL-2; IP lysis buffer (0.025 M Tris pH 7.4, 0.15 M NaCl, 0.001 M EDTA, 1% NP40, 5% glycerol), overnight at 4 °C, protein A/G magnetic beads
[2] = biological target: T2, A20 (tumor necrosis factor alpha-induced protein 3), endogenous (human (endogenous in HCT116 and THC8307)); experiment: co-IP; endogenous proteins in HCT116 and THC8307 cells; immunoprecipitation followed by western blot; IP lysis buffer (0.025 M Tris pH 7.4, 0.15 M NaCl, 0.001 M EDTA, 1% NP40, 5% glycerol), overnight at 4 °C, protein A/G magnetic beads

binding [1] | Molecule | binding [2]
no binding | BCL-2 (from UniProt P10415 1-239) | 
 | IKK-β, endogenous (protein, UniProt O14920 1-756) MSWSPSLTTQTCGAWEMKERLGTGGFGNVIRWHNQETGEQIAIKQCRQELSPRNRERWCLEIQIMRRLTHPNVVAARDVPEGMQNLAPNDLPLLAMEYCQGGDLRKYLNQFENCCGLREGAILTLLSDIASALRYLHENRIIHRDLKPENIVLQQGEQRLIHKIIDLGYAKELDQGSLCTSFVGTLQYLAPELLEQQKYTVTVDYWSFGTLAFECITGFRPFLPNWQPVQWHSKVRQKSEVDIVVSEDLNGTVKFSSSLPYPNNLNSVLAERLEKWLQLMLMWHPRQRGTDPTYGPNGCFKALDDILNLKLVHILNMVTGTIHTYPVTEDESLQSLKARIQQDTGIPEEDQELLQEAGLALIPDKPATQCISDGKLNEGHTLDMDLVFLFDNSKITYETQISPRPQPESVSCILQEPKRNLAFFQLRKVWGQVWHSIQTLKEDCNRLQQGQRAAMMNLLRNNSCLSKMKNSMASMSQQLKAKLDFFKTSIQIDLEKYSEQTEFGITSDKLLLAWREMEQAVELCGRENEVKLLVERMMALQTDIVDLQRSPMGRKQGGTLDDLEEQARELYRRLREKPRDQRTEGDSQEMVRLLLQAIQSFEKKVRVIYTQLSKTVVCKQKALELLPKVEEVVSLMNEDEKTVVRLQEKRQKELWNLLKIACSKVRGPVSGSPDSMNASRLSQPGQLMSQPSTASNSLPEPAKKSEELVAEAHNLCTLLENAIQDTVREQDQSFTALDWSWLQTEEEEHSCLEQAS | binds
